Where two headings read alike, the source gives them in different places.

Consider 1 compound from publication PMC5537225, “Therapeutic efficacy of a respiratory syncytial virus fusion inhibitor” (Nature Communications, 2017).

Assay [1] has as its system rgRSV224 D489Y mutant strain. Format: cell-based, respiratory syncytial virus. The settings on record: mutant selected with JNJ-53718678.
In another assay the test system is rgRSV224. The class given is cell-based, respiratory syncytial virus.

Take `Cc1ccc(CCCO)c(NCc2ccc3nc(NCCCN4CCOCC4)n(Cc4nc(C)ccc4O)c3c2)c1` [TMC353121]: the “FC (fold change over wild-type strain) mutant strain D489Y” value in assay [1] came to 81. The EC50 with rgRSV224 (mock-treated rgRSV224 during in vitro selection procedure, read-out: EC50 wild-type strain (untreated control)) came to 0.4 nM; in the assay on rgRSV224 (read-out: EC50 parent strain (rgRSV224)), 0.13 nM.

Usually EC50 stands for the concentration that produces a half-maximal response.
